Results from article PMC9507967.
These are yes or no findings as the source states them, for the method shown. In cells and extracts the contact can be indirect. Some binding calls cover weakened binding; strength is not graded here. Sequences can lack the tags named with a protein.

T1: Lem2 fused to green fluorescent protein (Lem2-GFP), expressed from the endogenous locus (S. pombe), Q10109
T1 chain: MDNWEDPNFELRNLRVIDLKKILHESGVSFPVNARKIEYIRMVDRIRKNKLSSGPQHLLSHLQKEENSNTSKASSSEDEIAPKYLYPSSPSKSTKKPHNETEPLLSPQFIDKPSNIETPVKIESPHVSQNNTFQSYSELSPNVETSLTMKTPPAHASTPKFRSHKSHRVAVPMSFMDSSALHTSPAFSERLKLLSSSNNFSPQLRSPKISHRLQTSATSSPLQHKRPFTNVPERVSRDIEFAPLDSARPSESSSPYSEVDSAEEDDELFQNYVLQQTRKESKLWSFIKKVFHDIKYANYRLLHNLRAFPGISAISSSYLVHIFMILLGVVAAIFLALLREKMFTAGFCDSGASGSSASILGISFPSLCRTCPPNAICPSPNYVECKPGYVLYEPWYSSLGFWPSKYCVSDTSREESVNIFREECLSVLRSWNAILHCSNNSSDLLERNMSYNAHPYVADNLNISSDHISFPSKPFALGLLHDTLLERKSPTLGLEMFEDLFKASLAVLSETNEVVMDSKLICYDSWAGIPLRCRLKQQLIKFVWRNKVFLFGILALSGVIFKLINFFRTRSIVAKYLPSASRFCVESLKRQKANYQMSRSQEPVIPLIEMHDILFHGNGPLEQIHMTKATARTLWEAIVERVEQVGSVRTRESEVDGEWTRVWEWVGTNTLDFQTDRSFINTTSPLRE

T2: GFP-Mmi1, expressed from the endogenous locus (S. pombe) (UniProt O74958)
T2 sequence: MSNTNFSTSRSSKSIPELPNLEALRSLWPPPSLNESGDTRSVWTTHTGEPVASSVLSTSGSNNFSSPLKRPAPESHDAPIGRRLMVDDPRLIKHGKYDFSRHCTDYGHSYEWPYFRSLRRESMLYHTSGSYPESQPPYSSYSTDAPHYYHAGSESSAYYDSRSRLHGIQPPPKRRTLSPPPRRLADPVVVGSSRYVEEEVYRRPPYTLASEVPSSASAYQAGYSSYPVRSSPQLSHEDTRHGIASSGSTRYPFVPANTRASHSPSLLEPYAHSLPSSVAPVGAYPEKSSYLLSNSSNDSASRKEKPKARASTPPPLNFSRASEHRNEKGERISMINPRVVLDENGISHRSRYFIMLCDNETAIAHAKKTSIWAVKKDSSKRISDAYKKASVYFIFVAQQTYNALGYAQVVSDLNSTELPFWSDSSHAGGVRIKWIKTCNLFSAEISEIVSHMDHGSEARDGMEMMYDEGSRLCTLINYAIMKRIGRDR

B1: Red1 tagged with 6 copies of the hemagglutinin epitope (Red1-6xHA), expressed from the endogenous locus, Q9UTR8 1-712 (protein)
chain: MSRSINLDELRKKALESKKKNEEDESNDSDKEDGEISEDDPVIDQSNSVPPMKVPTFPEQIPQLPPFDRFPGTNANFFPFGAPFMLPPALMFGPNTVPFFPQTASSNKTFSKRKRSSENSFNNRNKAKSSETSDSSNTSQSFKENRALKDTATSRPLALSSDTSYQKSEKAKSEKSPFLSTSKNSDANYSKTTNQKEAEKAVSQLFEVGVRFNDFIAEGIEPSVVHTLFLKLGLDSSSASSQGSLTLSADKAARSAKLRKIDSNLSDTHILPGDNGTPTVLPERKNLISLPLLKQDDWLSSSKPFGSSTPNVVIEFDSDDDGDDFSNSKIEQSNLEKPPSNSENGLTMSRSDYLALLRNKEEEIRRMTKLILRLESNKKPYRSPTSAADMKLPSVPVAAVDNKSKTHLDTFEKVVDLSSKADFVEAGPSISSSGASSSAATTNSDTTEQILEAPWLRKTEQIAVVHEEHPAQIKKSEIDILNNLIEKEEGELTKYQTLVKSKTEILTQLYTRKKQLLEQQGKGNVACLPKESDLSMDSITEVSAQADENSSQILSSKTSNAPNGTTETDFEDKVPLVDYISPFYRFKSYRFNQQFVERVPLKYRSLTYSNKIEPMKVFCKYETTGGVCNDDHCEASHFRDIKMTDDEIIQDLSRYIEGNDEIEKESYKSGLDIVMKNTDENTDFVDVATRIVEYHNLWKSERMTIPVAKVSI
B2: Red1 tagged with 6 copies of the hemagglutinin epitope (Red1-6xHA), expressed from the endogenous locus (protein, UniProt Q9UTR8 1-712)
chain: B1 chain

How the values were obtained:
[1] = biological target: T1, Lem2 fused to green fluorescent protein …; test: co-IP; S. pombe lysates, proteins expressed from their endogenous loci; GFP-Trap, 1.5 hours at 4 °C; lysis buffer 50 mM HEPES pH 7.4, 100 mM NaCl, 10% glycerol, 1 mM EDTA, 2.5 mM MgCl2, 0.5% NP-40; bound material untreated or treated with RNase or benzonase (Lem2-GFP); WT or lem2∆ background (GFP-Mmi1); immunoblot; conditions: remark: other sources report otherwise
[2] = biological target: T2, GFP-Mmi1, expressed from the endogenous locus (S. pombe); test: as above

Binder | binding [1] | binding [2]
B1 | binds | 
B2 |  | binds
